Consider 1 molecule from patent US20220009986A1 (AMBRX, published 2022).

Assay [1] has as its target T1, biotinylated human IL-10Rα (human) (UniProt Q13651).
T1 sequence (biotinylated (site not stated), looked up): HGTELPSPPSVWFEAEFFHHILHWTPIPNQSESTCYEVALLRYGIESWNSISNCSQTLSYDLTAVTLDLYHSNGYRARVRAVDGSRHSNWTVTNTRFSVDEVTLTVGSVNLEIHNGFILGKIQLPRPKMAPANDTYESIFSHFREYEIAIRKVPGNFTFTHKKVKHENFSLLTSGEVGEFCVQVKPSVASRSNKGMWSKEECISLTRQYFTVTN
Nature of the assay: BLI (Octet RED96), biotinylated human IL-10Rα on streptavidin biosensors, IL-10 as analyte. For orientation: In BLI a coated tip is dipped into the sample, and binding shifts an interference pattern.

In assay [2] the target is T1, biotinylated human IL-10Rα (human). Kind of assay: bio-layer interferometry (Octet RED96): biotinylated human IL-10Rα on streptavidin biosensors, IL-10 as analyte, 240 s association, 600 s dissociation, global 1:1 Langmuir fit.

Results are given in words; binding and its absence hold for the method and conditions named. Some binding calls cover weakened binding; strength is not graded here.

B1: IL-10 wild type (mature wild type human IL-10) (ligand)
chain: SPGQGTQSENSCTHFPGNLPNMLRDLRDAFSRVKTFFQMKDQLDNLLLKESLLEDFKGYLGCQALSEMIQFYLEEVMPQAENQDPDIKAHVNSLGENLKTLRLRLRRCHRFLPCENKSKAVEQVKNAFNKLQEKGIYKAMSEFDIFINYIEAYMTMKIRN
In the case of B1, the binding result in assay [1] and in assay [2] was “binds” each time.
